From publication PMC3507856, “Two glutamic acid residues in the DNA-binding domain are engaged in the release of STAT1 dimers from DNA” (BMC Cell Biology, 2012)
No constants are given. Whether binding was seen depends on the method and setting. Some results given as binding are weak or reduced against the parent protein; the word gives no strength.

Biological target: endogenous (native) STAT1 of HeLa cells (human (endogenous in HeLa)) (UniProt P42224)
Experiment: native gel or EMSA; whole cell lysates of HeLa cells (IFNγ 45 min, then staurosporine for the durations indicated) incubated in vitro with 32P-labelled M67 DNA (single high-affinity GAS site); STAT1 dimers seen as DNA-bound complexes on a 4% acrylamide gel at 4°C; homo- and heterodimers told apart by mobility

binding	Binder
binds	STAT1-WT-GFP (wild-type human STAT1 fused to green fluorescent protein) (natural protein, UniProt P42224 1-746, looked up, tyrosine-phosphorylated (phospho-Tyr701) after stimulation of cells with IFNγ, also called STAT1-GFP; GFP-tagged wild-type STAT1; source: HeLa cells, transfected (pEGFP-N1-STAT1), IFNγ-stimulated, in whole cell lysate; not shown: GFP, C-terminal, kept) MSQWYELQQLDSKFLEQVHQLYDDSFPMEIRQYLAQWLEKQDWEHAANDVSFATIRFHDLLSQLDDQYSRFSLENNFLLQHNIRKSKRNLQDNFQEDPIQMSMIIYSCLKEERKILENAQRFNQAQSGNIQSTVMLDKQKELDSKVRNVKDKVMCIEHEIKSLEDLQDEYDFKCKTLQNREHETNGVAKSDQKQEQLLLKKMYLMLDNKRKEVVHKIIELLNVTELTQNALINDELVEWKRRQQSACIGGPPNACLDQLQNWFTIVAESLQQVRQQLKKLEELEQKYTYEHDPITKNKQVLWDRTFSLFQQLIQSSFVVERQPCMPTHPQRPLVLKTGVQFTVKLRLLVKLQELNYNLKVKVLFDKDVNERNTVKGFRKFNILGTHTKVMNMEESTNGSLAAEFRHLQLKEQKNAGTRTNEGPLIVTEELHSLSFETQLCQPGLVIDLETTSLPVVVISNVSQLPSGWASILWYNMLVAEPRNLSFFLTPPCARWAQLSEVLSWQFSSVTKRGLNVDQLNMLGEKLLGPNASPDGLIPWTRFCKENINDKNFPFWLWIESILELIKKHLLPLWNDGCIMGFISKERERALLKDQQPGTFLLRFSESSREGAITFTWVERSQNGGEPDFHAVEPYTKKELSAVTFPDIIRNYKVMAAENIPENPLKYLYPNIDKDHAFGKYYSRPKEAPEPMELDGPKGTGYIKTELISVSEVHPSRLQTTDNLLPMSPEEFDEVSRIVGSVEFDSM
binds	STAT1-E411A-GFP (natural protein, human, UniProt P42224 1-746, looked up, tyrosine-phosphorylated (phospho-Tyr701) after stimulation of cells with IFNγ, STAT1, human; also called E411 mutant; source: HeLa cells, transfected (pEGFP-N1-STAT1 with point mutation), IFNγ-stimulated, in whole cell lysate; not shown: GFP, C-terminal, kept) MSQWYELQQLDSKFLEQVHQLYDDSFPMEIRQYLAQWLEKQDWEHAANDVSFATIRFHDLLSQLDDQYSRFSLENNFLLQHNIRKSKRNLQDNFQEDPIQMSMIIYSCLKEERKILENAQRFNQAQSGNIQSTVMLDKQKELDSKVRNVKDKVMCIEHEIKSLEDLQDEYDFKCKTLQNREHETNGVAKSDQKQEQLLLKKMYLMLDNKRKEVVHKIIELLNVTELTQNALINDELVEWKRRQQSACIGGPPNACLDQLQNWFTIVAESLQQVRQQLKKLEELEQKYTYEHDPITKNKQVLWDRTFSLFQQLIQSSFVVERQPCMPTHPQRPLVLKTGVQFTVKLRLLVKLQELNYNLKVKVLFDKDVNERNTVKGFRKFNILGTHTKVMNMEESTNGSLAAEFRHLQLKAQKNAGTRTNEGPLIVTEELHSLSFETQLCQPGLVIDLETTSLPVVVISNVSQLPSGWASILWYNMLVAEPRNLSFFLTPPCARWAQLSEVLSWQFSSVTKRGLNVDQLNMLGEKLLGPNASPDGLIPWTRFCKENINDKNFPFWLWIESILELIKKHLLPLWNDGCIMGFISKERERALLKDQQPGTFLLRFSESSREGAITFTWVERSQNGGEPDFHAVEPYTKKELSAVTFPDIIRNYKVMAAENIPENPLKYLYPNIDKDHAFGKYYSRPKEAPEPMELDGPKGTGYIKTELISVSEVHPSRLQTTDNLLPMSPEEFDEVSRIVGSVEFDSM
